Binding data for one substance are collected here from paper PMC9701038.

No constants are given. Whether binding was seen depends on the method and setting. In cells and extracts the contact can be indirect. Binding can be weak; no strength is given.

The target in the test is T1, exogenous HOGA1 (human) (UniProt Q86XE5).
T1 sequence: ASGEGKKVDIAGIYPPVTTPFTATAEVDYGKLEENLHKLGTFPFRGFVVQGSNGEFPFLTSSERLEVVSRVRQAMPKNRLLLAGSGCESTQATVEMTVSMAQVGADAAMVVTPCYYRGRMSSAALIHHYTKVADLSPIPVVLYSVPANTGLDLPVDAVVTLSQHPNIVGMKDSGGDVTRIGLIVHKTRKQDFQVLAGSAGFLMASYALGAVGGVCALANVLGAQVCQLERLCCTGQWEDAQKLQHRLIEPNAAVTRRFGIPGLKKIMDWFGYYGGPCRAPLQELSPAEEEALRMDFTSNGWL
Put plainly: co-IP; exogenous tagged HOGA1 and LARPs in PANC-1 cells; lysis in 0.5% NP-40 buffer (50 mM Tris-HCl pH 7.5, 150 mM NaCl, 0.3% NONIDET P-40); Flag beads 3 h at 4 C; SDS-PAGE and western blot.

In the case of exogenous LARP7 (human), the binding entry was “binds”.
